Whole data set: some 33,000 sequences, median “E-score (-0.5 to 0.5)” near -0.0014, cut for the highest 2% near 0.25. The list shows a part of the results.
Target: T1, Cad1 (UniProt P24813)
T1 sequence: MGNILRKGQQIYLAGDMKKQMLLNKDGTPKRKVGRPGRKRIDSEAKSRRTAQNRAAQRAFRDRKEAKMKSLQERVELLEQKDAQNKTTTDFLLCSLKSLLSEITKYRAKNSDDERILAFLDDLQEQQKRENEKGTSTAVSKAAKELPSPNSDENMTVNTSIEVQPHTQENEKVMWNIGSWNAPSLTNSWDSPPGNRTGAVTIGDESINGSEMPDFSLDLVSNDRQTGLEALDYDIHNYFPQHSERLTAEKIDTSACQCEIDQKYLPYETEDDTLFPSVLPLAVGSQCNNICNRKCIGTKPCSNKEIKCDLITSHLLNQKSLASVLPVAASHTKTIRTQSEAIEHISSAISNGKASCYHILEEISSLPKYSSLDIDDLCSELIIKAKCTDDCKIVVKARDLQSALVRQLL
Assay: PBM E-score (8-mer binding enrichment) (E-score (-0.5 to 0.5)); higher = stronger / more preferred TF binding
Settings: protein concentration: 100 nM; construct: GST-full length
Summary of the method: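 Full-length yeast transcription factors or their DNA-binding domains, GST-tagged and expressed with PURExpress, were applied at about 100-200 nM to universal all-10-mer Agilent arrays. These arrays had been made double-stranded by primer extension on fresh or once-stripped slides. Detection used fluorescent anti-GST, normalisation used masliner, and E-scores for ungapped eight-base words pooled with reverse complements came from the Universal PBM Analysis Suite.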

Sequence | PBM E-score
AGTGCAGA | -0.0627
AACAAGTT | 0.00514
AAACTCCA | -0.0306
ATACAATC | 0.0426
ACGGGGCG | 0.199
CATGGCGC | 0.0115
CACGACGC | -0.131
CGCCCGCC | 0.0039
ACGACTAG | 0.073
AACGCATG | 0.0935
ATACATCG | 0.197
AGATTTGC | 0.182
ATCCATTA | 0.0411
CGCATCCG | -0.0538
AAGGTATA | -0.00636
ATCCGCGA | 0.0515
CACCCACC | -0.0145
CCCCAGAA | -0.154
ACCAATGG | -0.069
TAAGCGCA | 0.144
ACTTCCCT | -0.0618
CAGGCGTA | 0.19
TAAGTTGA | 0.00888
CCCAGAGC | -0.178
GGCATACA | -0.0281

Copied from the list:
Entry of ACGACTAG under PBM E-score: 0.073
Entry of AACGCATG under PBM E-score: 0.0935
Entry of ACGGGGCG under PBM E-score: 0.199
Entry of ACTTCCCT under PBM E-score: -0.0618
Entry of ATCCATTA under PBM E-score: 0.0411

The list goes on.

Sequence | PBM E-score
ACAGTCAC | -0.0959
GGTTCACA | 0.164
GAGTGCCC | -0.055
AGAGCTCT | -0.28
AGCCCGAG | -0.154
CGGCCAGC | -0.205
GGCGATGA | -0.172
ACCAGCAC | -0.0475
CCAAGCCG | -0.0394
AATTGTCG | 0.0794
AAGGAGTA | -0.143
CCTCGAAA | 0.03
CGACGTGC | -0.048
ATCGTCTA | 0.0165
CGAACTTA | 0.0337
AGTCGACA | 0.22
CTTAACTC | 0.0365
TATGGCCA | 0.145
CCGCAGAA | 0.179
ATGACCCG | -0.112
GCATACGA | -0.0714
AAGCGTGC | 0.0124
TCTTTGCA | 0.0891
CATGTAGC | -0.0406
CGTTTTCC | 0.0584

Sequence | PBM E-score
CTCAACCC | 0.00668
GCCACCAC | -0.258
CACTTGCC | -0.114
CATGACCC | -0.205
CTCAGGTC | 0.0134
CTGCCTAA | -0.14
GGAACAGA | -0.0833
ATTTATGG | 0.0916
ACTTGGCA | -0.103
CGTAGCAG | -0.105
GGACTTCA | -0.151
ACTACAAG | 0.0126
ACTTCGCG | 0.216
CGACGCAC | -0.011
GATGGACC | 0.00457
AGCCTATG | -0.125
GTTCTCAA | 0.138
CGCTTTCA | 0.144
GACATGAA | 0.0697
CGCGCACG | 0.0231
CGTCTGTC | -0.075
CTACAAGA | -0.173
AATACTCG | 0.114
AACTATAA | 0.105
TAAGCCTA | 0.151

Sequence | PBM E-score
CTTCTAAC | -0.2
CAGCTCCG | 0.0823
CTCTAACC | -0.275
GCGACATA | 0.119
AGGGTACC | -0.257
ATGATCGA | -0.0582
ACGGATCC | -0.0362
GATATGCA | 0.111
CAATGTGC | 0.0851
AATTCACC | 0.0701
GATATCCC | 0.174
AAGATGGC | -0.131
GACGTTAC | 0.00241
GTCTGGAA | -0.111
AAGGAGCG | -0.166
AGTAGAAA | 0.108
CGATGTTA | 0.11
CAACTTAA | 0.0842
CCTGTGCG | -0.0406
CGGGGAAA | 0.0522
TGCCATAA | -0.0398
GAAGTAAC | 0.113
CACTTACC | 0.0641
GTGTGATA | 0.186
AGGTTTAT | 0.0989

Sequence | PBM E-score
TACCCTAA | -0.0491
GTGCAACA | 0.0165
AAACTGAT | 0.0819
GCTAACAA | 0.0562
GGCGTGCA | 0.0576
AAGTCTTA | -0.14
GTAACAAC | 0.095
AACCAGTA | 0.157
GTGCATGA | 0.0119
ACCATAGA | -0.129
CTCATCGC | -0.133
CGTCGATC | 0.203
CTAACAAA | 0.158
TACACACA | 0.061
GCCGTCTA | -0.0651
CATGTTGA | 0.243
GCATAGTA | -0.0191
AAGACGTG | 0.0203
AGATTGAT | -0.0358
TCTTCAAA | -0.0389
ATCCCTTA | -0.0404
CCATGCTA | -0.127
ATCTGTCG | 0.0745
AGGCACGG | 0.0172
ATAATGAG | 0.0901

Sequence | PBM E-score
CACACCTG | -0.232
GCCTACCA | -0.141
CTCAGTTC | -0.0283
TAATACTA | 0.303
ACTGACTG | -0.0382
CCTAATGC | -0.146
ACGGAGCC | -0.219
AGGCGTAC | 0.0312
AACGGACA | 0.235
CTGATAAC | -0.106
ATCTAAAA | 0.00312
ACCCGAAT | 0.0321
AATTTTTC | 0.145
CGCACTCC | -0.206
CGTTCGCC | -0.204
CAGGGGAA | -0.168
GAACCGCC | -0.0961
TCCCCGGA | -0.0362
CTAGTTTC | 0.0946
CGTAAGGC | 0.0848
GAAAATTC | 0.167
TCCTCGAA | -0.0511
GACTTAGC | -0.0912
ACTTGTAG | 0.00244
ACCTCGGC | 0.138

Sequence | PBM E-score
ACAGTGCC | -0.00411
CACAATCA | 0.00489
GGATACAC | 0.105
AGACGCAT | -0.00538
CCATAAAG | -0.145
ATCTTGCC | 0.0506
ATCCGCAC | 0.11
CTGAGGGC | -0.223
ATAAATAT | 0.179
CGGTATCC | -0.0516
TTACCCAA | -0.144
ACCACACT | 0.0497
ATCCCTCC | 0.0298
CGTGTAAC | -0.0789
TAGCTTGA | -0.0678
CCCTCGCG | 0.0362
TAGTGCGA | 0.0537
GACGAAGA | -0.119
ATAATTGA | 0.149
GAGATTAC | 0.0954
CGCACGGA | 0.0086
TCGCACCA | 0.0505
GCGGCCAC | -0.175
CGGTCGCC | -0.0194
CTACACCC | -0.0312

Sequence | PBM E-score
CGACCGTC | -0.131
ACAACCGA | 0.0584
ATTATGCC | 0.0752
AGCTACCC | -0.0472
CAGACATG | -0.139
AAACCTCG | 0.0478
ACAGTCCT | 0.0222
ATTGAAGA | -0.0755
ATCCTCAC | 0.0838
AATTCACT | 0.171
AGCGCGCG | 0.311
GCTCGCTA | -0.0118
AGTACCAT | -0.0404
AGTGAGAA | 0.0636
TGGAATAA | 0.0715
ATAGGAGG | -0.255
AATGAACA | 0.053
GTATACGA | -0.0859
CATTTTCC | 0.109
GGCACGCC | -0.238
CAAAAGGC | -0.0254
TTAAACAA | -0.157
CATCCGGG | -0.159
GAACTTTA | -0.0275
CGGGCCTA | -0.0675

Sequence | PBM E-score
GACGAGCC | -0.123
ATGTATAC | 0.0966
CATTGATC | 0.02
GCATGCTA | 0.00906
ACGACCCA | -0.121
CGGCCACA | -0.0618
CGCAATTC | 0.105
ACGCGTAA | 0.176
AGGCTCAA | -0.0839
ATGAATGG | 0.038
ACCCGGAT | -0.257
ACACGGCG | 0.0831
CGGACCAG | 0.00646
CAAAGCGC | 0.082
GGCTATAA | -0.104
AGATAGAT | -0.198
ATCCTTAG | -0.11
ATCTCACG | 0.0403
ATCCCGCC | -0.117

Reference: the supplement of paper PMC3334620
